Assay results taken from PMC7545706.
No constants are given. Whether binding was seen depends on the method and setting. Binding seen in cells or lysates may run through a third protein. Some entries that bind do so weakly or less than the wild type. For some assays here: Sequences can lack the tags named with a protein.

The chains behind the UniProt entries cited, without tags or fusion partners. Where a name states a change or a piece, a line headed by the entry shows the natural chain unless it says otherwise.
UniProt Q16666: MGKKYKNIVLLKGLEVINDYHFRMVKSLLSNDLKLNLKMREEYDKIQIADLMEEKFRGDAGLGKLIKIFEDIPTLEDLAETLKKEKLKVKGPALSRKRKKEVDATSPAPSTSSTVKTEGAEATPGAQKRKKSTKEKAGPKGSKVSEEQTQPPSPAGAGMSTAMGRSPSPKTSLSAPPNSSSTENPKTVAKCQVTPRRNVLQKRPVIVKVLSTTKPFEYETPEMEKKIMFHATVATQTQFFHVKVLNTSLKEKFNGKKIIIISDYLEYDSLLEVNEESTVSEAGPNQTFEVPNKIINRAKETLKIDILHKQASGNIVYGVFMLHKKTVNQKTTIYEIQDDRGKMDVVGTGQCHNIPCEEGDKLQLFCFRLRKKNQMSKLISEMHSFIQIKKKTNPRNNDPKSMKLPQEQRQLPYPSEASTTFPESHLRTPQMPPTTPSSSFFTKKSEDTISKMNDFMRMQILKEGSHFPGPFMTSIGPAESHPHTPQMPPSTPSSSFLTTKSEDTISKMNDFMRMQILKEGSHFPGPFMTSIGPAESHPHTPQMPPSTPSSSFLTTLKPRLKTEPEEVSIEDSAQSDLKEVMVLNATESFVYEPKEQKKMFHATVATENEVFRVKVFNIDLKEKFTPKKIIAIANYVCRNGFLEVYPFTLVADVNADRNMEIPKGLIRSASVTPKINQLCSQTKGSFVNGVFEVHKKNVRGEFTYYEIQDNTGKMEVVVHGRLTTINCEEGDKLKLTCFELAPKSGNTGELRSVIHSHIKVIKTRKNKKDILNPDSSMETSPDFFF
UniProt P06788: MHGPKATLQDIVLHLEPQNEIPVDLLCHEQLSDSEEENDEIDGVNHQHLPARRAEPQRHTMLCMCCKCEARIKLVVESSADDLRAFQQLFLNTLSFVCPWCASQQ

Tests used:
[1] = target: Flag-IFI16 (human) (UniProt Q16666); test: co-IP; 293T cells cotransfected for 36 hr with tagged plasmids; NP-40 lysis buffer; immunoprecipitation with anti-FlagM2 beads, immunoblot
[2] = target: T1, Flag-HPV 11E7 (human papillomavirus type 11) (UniProt P04020); test: co-IP; HaCaT cells stably expressing Flag-HPV 11E7, transfected with poly(dA:dT) for the indicated times; NP-40 lysis buffer; immunoprecipitation with anti-FlagM2 beads, immunoblot
T1 sequence: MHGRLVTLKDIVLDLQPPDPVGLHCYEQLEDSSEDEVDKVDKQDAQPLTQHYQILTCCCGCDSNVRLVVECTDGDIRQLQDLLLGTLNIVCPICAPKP

[3] = target: HPV 18E7 (endogenous, HeLa) (human papillomavirus type 18 (endogenous in HeLa)) (UniProt P06788); test: co-IP; endogenous proteins of HeLa cells transfected with poly(dA:dT) for the indicated times; immunoprecipitation with IFI16, HPV 18E7, TRIM21 or IgG-conjugated magnetic beads, immunoblot
[4] = target: Flag-HPV 18E7 (human papillomavirus type 18) (UniProt P06788); test: co-IP; 293T cells cotransfected for 36 hr with tagged plasmids; NP-40 lysis buffer; immunoprecipitation with anti-FlagM2 beads, immunoblot

GFP-HPV 18E7 (from UniProt P06788 1-105)
binding [1]: binds

IFI16 (endogenous, HaCaT) (from UniProt Q16666-1 1-785)
binding [2]: binds

IFI16 (endogenous, HeLa) (from UniProt Q16666-1 1-785)
binding [3]: binds

Myc-IFI16 (from UniProt Q16666-1 1-785)
binding [4]: binds

Myc-TRIM21 (from UniProt P19474-1 1-475)
binding [4]: binds | binding [1]: binds

TRIM21 (endogenous, HaCaT) (from UniProt P19474-1 1-475)
binding [2]: binds

TRIM21 (endogenous, HeLa) (from UniProt P19474-1 1-475)
binding [3]: binds
